{"source": "PubChem BioAssay AID602313", "about": "(National Center for Advancing Translational Sciences (NCATS), 2012)", "note": "Screen size: about 390,000 compounds; about 760 (0.19%) were called active. Inconclusive results, whose numbers are uncertain, are shown with a selection of clear calls. Calls come from the whole dose curve; as a rule, active = well fitted inhibition curve with a large enough effect; inconclusive = small, poorly fitted or top-dose-only effect; inactive = flat fitted curve, though single readings scatter. Potencies of inconclusive entries are doubtful fits and often do not repeat. Potency is the fitted concentration of half-maximal effect."}
{"experiment": "qHTS for Inhibitors of Vif-A3F Interactions: qHTS; note: nearly all actives have a fitted effect of over 65% in size", "conditions": "HeLa A3F-eYFP + Vif (tagged APOBEC3F with the HIV-1 protein that degrades it), YFP fluorescence increase; series mostly up to 46.1 µM", "method_in_brief": "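HeLa cells stably expressing Vif plus C-terminally eYFP-tagged A3F were seeded, incubated overnight at 37 deg C, dosed with compound, incubated overnight again at 37 deg C. Yellow fluorescence (Ex 488/Em 500-530) reported blocked Vif-mediated A3F-eYFP degradation.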"}
{"smiles": "N#CC(C(=S)Nc1ccccc1)c1nc2ccccc2[nH]1", "note": "(stereo unspecified)", "Potency": "inconclusive: 0.631 µM [inhibitor, full curve, poor fit]"}
{"smiles": "N#C/C(=C\\Nc1ccc2cn[nH]c2c1)c1nc(-c2ccc(Cl)cc2)cs1", "Potency": "active: 22.4 µM"}
{"smiles": "CCOc1cccc2c1OC1(C)CC2NC(=O)N1c1cccc(C(=O)N2CCN(c3ccccn3)CC2)c1", "note": "(stereo unspecified)", "Potency": "inactive"}
{"smiles": "O=C(/C=C/c1ccccc1Cl)N1CCCN(C(=O)/C=C/c2ccccc2Cl)CC1", "Potency": "inconclusive: 35.5 µM [inhibitor, single point]"}
{"smiles": "CCCc1cc(=O)[nH]c(SCC(=O)Nc2ccc([N+](=O)[O-])cc2C#N)n1", "Potency": "inconclusive: 15.8 µM [inhibitor, single point]"}
{"smiles": "COC(=O)C[n+]1cccc2ccccc21", "Potency": "inconclusive: 3.98 µM [inhibitor, full curve, poor fit]"}
{"smiles": "CSCCC1NC(=O)N(CC(=O)Nc2ccc3c(c2)OCCO3)C1=O", "note": "(stereo unspecified)", "Potency": "inconclusive: 22.4 µM [inhibitor, single point]"}
{"smiles": "Clc1cccc2c3c([nH]c12)CCNC3", "Potency": "inconclusive: 1.58 µM [inhibitor, partial curve, poor fit]"}
{"smiles": "Oc1ccc(CN2CCCCC2)c2cccnc12", "Potency": "inactive"}
{"smiles": "Cc1cc(NS(=O)(=O)c2ccc(NC(=O)/C=C/c3ccco3)cc2)nc(C)n1", "Potency": "inactive"}
{"smiles": "Cc1cc(-c2ccccc2)c2c3c(c(-c4ccccc4)n2n1)c(=O)n(C)c(=O)n3C", "Potency": "active: 25.1 µM"}
{"smiles": "CCOC(=O)/C(C#N)=C\\c1cc(OC)c(OC)cc1[N+](=O)[O-]", "Potency": "inactive"}
{"smiles": "O=C(Nc1cc(Cl)cc(Cl)c1)c1ccc(F)c(S(=O)(=O)NC2CCCCC2)c1", "Potency": "inactive"}
{"smiles": "CCc1cc(SC#N)ccc1N", "Potency": "inconclusive: 31.6 µM [inhibitor, partial curve, poor fit]"}
{"smiles": "CC(=O)Nc1sc(NC(=O)c2ccccc2)nc1-c1cccs1", "Potency": "inactive"}
{"smiles": "Cc1ccc(NC(=O)Cn2c(=O)n(Cc3ccc4c(c3)OCO4)c(=O)c3ccccc32)c(C)c1", "Potency": "inconclusive: 15.8 µM [inhibitor, single point]"}
{"smiles": "COc1cc(C2C3=C(CC(C)(C)CC3=O)OC3=C2C(=O)CC(C)(C)C3)cc([N+](=O)[O-])c1O", "Potency": "inconclusive: 22.4 µM [inhibitor, single point]"}
{"smiles": "CCc1ccc(-c2cc3c(=O)n(CC(=O)NCCN4CCCCC4C)nc(C)n3n2)cc1", "note": "(stereo unspecified)", "Potency": "inactive"}
{"smiles": "Cc1cc(Cl)ccc1OCC(=O)Nc1c(C(=O)c2ccccc2)oc2ccccc12", "Potency": "inactive"}
{"smiles": "O=C1C(=Cc2ccco2)CCCC1=Cc1ccco1", "Potency": "inconclusive: 22.4 µM [inhibitor, partial curve, poor fit]"}
{"smiles": "O=Cc1[nH]c2ccccc2c1N(C(=O)CCl)c1ccccc1", "Potency": "inconclusive: 10 µM [inhibitor, partial curve]"}
{"smiles": "Cc1cc(C)nc(N2N=C(c3ccccc3)CC2=O)n1", "Potency": "inactive"}
{"smiles": "NNC(=O)c1oc2nc(-c3ccccc3)cc(-c3ccccc3)c2c1N", "Potency": "inconclusive: 35.5 µM [inhibitor, single point]"}
{"smiles": "COc1ccc(Br)cc1/C=N/N1C(=O)CSC1=S", "Potency": "inconclusive: 35.5 µM [inhibitor, single point]"}
{"smiles": "O=C(O)c1cc(-c2ccc(/C=C3/SC(=S)N(Cc4ccccc4)C3=O)o2)ccc1Cl", "Potency": "inconclusive: 2.51 µM [inhibitor, full curve, poor fit]"}
{"smiles": "Cc1ccccc1NC(=O)CSc1nnc2ccc(-c3ccccn3)nn12", "Potency": "inconclusive: 35.5 µM [inhibitor, single point]"}
{"smiles": "CCOC(=O)CSc1nc2c(sc(=S)n2-c2ccccc2OC)c(=O)n1-c1ccccc1OC", "Potency": "inactive"}
{"smiles": "O=C(NCCN1C(=O)S/C(=C/c2cccnc2)C1=O)c1ccc(S(=O)(=O)N2CCCC2)cc1", "Potency": "inconclusive: 11.2 µM [inhibitor, partial curve, poor fit]"}
{"smiles": "O=C(Nc1ccccc1)c1nc2ccccc2s1", "Potency": "inconclusive: 11.2 µM [inhibitor, partial curve, poor fit]"}
{"smiles": "CCn1c(O)c(N=NC(=O)CNC(=O)c2ccco2)c2ccccc21", "Potency": "inactive"}
{"smiles": "Cc1ccc2cc(CN(CCN(C)C)C(=O)Nc3ccc(Cl)cc3)c(=O)[nH]c2c1", "Potency": "inconclusive: 2.82 µM [inhibitor, single point]"}
{"smiles": "COc1ccc(C)cc1-n1[nH]nnc1=S", "Potency": "inconclusive: 6.31 µM [inhibitor, single point]"}
{"smiles": "CCc1c(C)nc(N2CCOCC2)[nH]c1=O", "Potency": "inconclusive: 7.08 µM [inhibitor, partial curve, poor fit]"}
{"smiles": "CCNc1ccc(Br)cc(C(=O)/C=C/c2ccc3c(c2)OCO3)c1=O", "Potency": "active: 12.6 µM"}
{"smiles": "CCOc1ccc(C(=O)CCC(=O)Nc2ncccc2O)cc1", "Potency": "inconclusive: 35.5 µM [inhibitor, single point]"}
{"smiles": "Fc1ccccc1Nc1nc(Cl)nc(Cl)n1", "Potency": "inactive"}
{"smiles": "COC(=O)c1ccc(NC(=O)CN2C(=O)c3ccccc3S2(=O)=O)cc1", "Potency": "inconclusive: 35.5 µM [inhibitor, single point]"}
{"smiles": "Cc1ccc(C(=O)/C=C/c2ccc(-c3ccc(C)cc3)o2)cc1", "Potency": "inconclusive: 35.5 µM [inhibitor, single point]"}
{"smiles": "Cc1cc(C(=O)N/N=C/c2cccs2)no1", "Potency": "inconclusive: 35.5 µM [inhibitor, single point]"}
{"smiles": "O=[N+]([O-])c1ccc(COc2ccc(-c3[nH]ncc3-c3ccc(Cl)cc3)c(O)c2)cc1", "Potency": "inactive"}
{"smiles": "O=C(CSc1nc(-c2ccc(F)cc2)[nH]c1-c1ccccc1)Nc1ccccc1", "Potency": "inconclusive: 35.5 µM [inhibitor, single point]"}
{"smiles": "O=C(N/N=C/c1sc2ccccc2c1O)c1cccc2ccccc12", "Potency": "inconclusive: 31.6 µM [inhibitor, single point]"}
{"smiles": "CCN(CC)CCCNC(=O)CSc1nc(-c2cccs2)cc(C(F)(F)F)n1", "Potency": "inconclusive: 6.31 µM [inhibitor, single point]"}
{"smiles": "COc1cccc(CN2C(=O)c3ccccc3S2(=O)=O)c1", "Potency": "inactive"}
{"smiles": "Cc1ccc(OCCCCNC(C)c2ccccc2)c(C)c1", "note": "(stereo unspecified)", "Potency": "inactive"}
{"smiles": "c1ccc(-n2ncc3c(N4CCCCC4)ncnc32)cc1", "Potency": "inactive"}
{"smiles": "CCc1ccc2nc(SCC(=O)Nc3ccccc3N3CCOCC3)c(C#N)cc2c1", "Potency": "active: 10 µM"}
{"smiles": "CCCc1nc2ccccc2n1Cc1ccccc1OC", "Potency": "inconclusive: 22.4 µM [inhibitor, single point]"}
{"smiles": "COc1ccccc1CNC(=O)C1CCN(S(=O)(=O)c2ccc3c(ccn3C)c2)CC1", "Potency": "inactive"}
{"smiles": "CCOC(=O)Nc1ccc2c(CN(C)Cc3ccc(F)cc3)cc(=O)oc2c1", "Potency": "inconclusive: 31.6 µM [inhibitor, single point]"}
{"smiles": "O=C(N/N=C/c1ccccc1F)c1csc2c1CCCC2", "Potency": "inconclusive: 1.78 µM [inhibitor, partial curve, poor fit]"}
{"smiles": "COC(=O)c1c(-c2cccs2)csc1NC(=O)c1ccc(OC)c(OC)c1", "Potency": "inconclusive: 17.8 µM [inhibitor, partial curve, poor fit]"}
{"smiles": "Cc1ccccc1C(=O)N=c1ccn(-c2nc3ccccc3nc2NS(=O)(=O)c2ccc(F)cc2)cc1", "Potency": "inconclusive: 35.5 µM [inhibitor, single point]"}
{"smiles": "CN1C(=O)/C(=C/C=C2\\SCCN2C)OC1=S", "Potency": "inconclusive: 6.31 µM [inhibitor, single point]"}
{"smiles": "COc1ccc(/C=N/NC(=O)c2[nH]c3ccc(Br)cc3c2-c2ccccc2)c(C(=O)O)c1OC", "Potency": "inconclusive: 35.5 µM [inhibitor, single point]"}
{"smiles": "N#Cc1nc(-c2cccs2)oc1N1CCN(c2ccccc2)CC1", "Potency": "inactive"}
{"smiles": "COc1ccc(C(=O)c2c(N)sc3c2CCN(C(=O)OC(C)(C)C)C3)cc1", "Potency": "inconclusive: 17.8 µM [inhibitor, partial curve, poor fit]"}
{"smiles": "CN(C)c1ccc(S(=O)(=O)N(C)C)cc1NC(=O)Cc1cccc2ccccc12", "Potency": "inconclusive: 35.5 µM [inhibitor, partial curve, poor fit]"}
{"smiles": "COC(=O)c1sc(NC(=O)c2cccc([N+](=O)[O-])c2)c(C(N)=O)c1C", "Potency": "inactive"}
{"smiles": "CC1CC(C)CN(C(=O)c2ccc3c(c2)N(Cc2ccccc2)CCS3)C1", "note": "(stereo unspecified)", "Potency": "inconclusive: 35.5 µM [inhibitor, single point]"}
{"smiles": "CCOC(=O)c1sc(=S)n(C)c1NC(=O)c1ccc(F)cc1", "Potency": "inactive"}
{"smiles": "CCCCC1(CC)COC(c2ccccc2)OC1", "note": "(stereo unspecified)", "Potency": "inconclusive: 35.5 µM [inhibitor, single point]"}
{"smiles": "CC(=O)N(c1ccccc1)C(C)c1nc(C#N)c(C#N)nc1C", "note": "(stereo unspecified)", "Potency": "inconclusive: 35.5 µM [inhibitor, partial curve, poor fit]"}
{"smiles": "COCCN1CCn2c(nc3cc(NS(C)(=O)=O)ccc32)C1", "Potency": "inconclusive: 25.1 µM [inhibitor, partial curve, poor fit]"}
{"smiles": "Cc1ccn2c(=O)nc(SCC(=O)NCc3ccc4c(c3)OCO4)nc2c1", "Potency": "inconclusive: 35.5 µM [inhibitor, single point]"}
{"smiles": "CCOc1ccc(CNC(=S)N/N=C/c2ccncc2)cc1", "Potency": "inconclusive: 35.5 µM [inhibitor, single point]"}
{"smiles": "Cc1ccc[n+](CC2OCc3ccccc3CO2)c1", "Potency": "inactive"}
{"smiles": "COc1cccc(C(NC(C)=O)c2ccc3cccnc3c2O)c1", "note": "(stereo unspecified)", "Potency": "inconclusive: 5.62 µM [inhibitor, single point]"}
{"smiles": "C=CCN1C=CC(=C/C=C(/C#N)C(=O)OCC)C=C1", "Potency": "active: 11.2 µM"}
{"smiles": "COc1ccc(C(C)=O)cc1COC(=O)CNC(=O)C1CCCCC1", "Potency": "inactive"}
{"smiles": "Cc1ccc(C(=O)NC(=S)NCc2ccco2)cc1", "Potency": "inconclusive: 35.5 µM [inhibitor, single point]"}
